Laboratory results: article PMC4026351
These are yes or no findings as the source states them, for the method shown. Some entries that bind do so weakly or less than the wild type. For some of these results: Sequences can lack the tags named with a protein.

Protein sequences, listed by entry. Tags and fused reporters are not part of them. Lines headed by an entry give the natural chain unless they say otherwise; changes in a name come on top.
UniProt Q03708: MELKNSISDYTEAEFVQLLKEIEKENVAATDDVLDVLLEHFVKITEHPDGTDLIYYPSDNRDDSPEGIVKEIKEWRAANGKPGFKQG
UniProt Q47112: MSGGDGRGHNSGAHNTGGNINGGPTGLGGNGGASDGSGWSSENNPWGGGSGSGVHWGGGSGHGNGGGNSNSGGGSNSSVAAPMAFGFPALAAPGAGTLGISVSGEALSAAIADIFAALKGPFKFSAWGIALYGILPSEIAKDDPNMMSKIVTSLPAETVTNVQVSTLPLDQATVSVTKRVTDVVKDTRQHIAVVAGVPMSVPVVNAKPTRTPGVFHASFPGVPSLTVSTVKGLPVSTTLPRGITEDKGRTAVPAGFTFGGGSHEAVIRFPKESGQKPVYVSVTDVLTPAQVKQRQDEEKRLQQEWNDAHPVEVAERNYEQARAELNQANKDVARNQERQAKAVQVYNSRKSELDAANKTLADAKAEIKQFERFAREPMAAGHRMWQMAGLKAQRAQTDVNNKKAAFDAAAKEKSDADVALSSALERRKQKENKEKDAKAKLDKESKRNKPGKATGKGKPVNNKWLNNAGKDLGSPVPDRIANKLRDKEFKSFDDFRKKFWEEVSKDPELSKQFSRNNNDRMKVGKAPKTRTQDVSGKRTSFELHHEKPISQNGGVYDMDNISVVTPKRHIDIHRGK
UniProt P00646: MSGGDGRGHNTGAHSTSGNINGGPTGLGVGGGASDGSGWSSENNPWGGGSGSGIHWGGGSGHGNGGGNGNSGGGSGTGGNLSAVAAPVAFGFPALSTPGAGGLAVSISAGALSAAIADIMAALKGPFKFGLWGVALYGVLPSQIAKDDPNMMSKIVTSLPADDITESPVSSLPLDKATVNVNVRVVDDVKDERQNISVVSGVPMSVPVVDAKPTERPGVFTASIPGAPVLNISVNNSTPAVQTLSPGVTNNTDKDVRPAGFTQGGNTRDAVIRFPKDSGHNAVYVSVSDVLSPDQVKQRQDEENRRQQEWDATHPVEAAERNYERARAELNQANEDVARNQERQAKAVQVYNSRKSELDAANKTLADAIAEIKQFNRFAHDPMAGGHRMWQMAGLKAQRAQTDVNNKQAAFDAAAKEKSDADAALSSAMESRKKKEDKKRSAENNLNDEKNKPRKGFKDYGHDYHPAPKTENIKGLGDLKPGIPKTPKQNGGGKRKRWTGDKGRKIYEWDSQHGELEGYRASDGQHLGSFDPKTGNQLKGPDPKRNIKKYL
UniProt P04419: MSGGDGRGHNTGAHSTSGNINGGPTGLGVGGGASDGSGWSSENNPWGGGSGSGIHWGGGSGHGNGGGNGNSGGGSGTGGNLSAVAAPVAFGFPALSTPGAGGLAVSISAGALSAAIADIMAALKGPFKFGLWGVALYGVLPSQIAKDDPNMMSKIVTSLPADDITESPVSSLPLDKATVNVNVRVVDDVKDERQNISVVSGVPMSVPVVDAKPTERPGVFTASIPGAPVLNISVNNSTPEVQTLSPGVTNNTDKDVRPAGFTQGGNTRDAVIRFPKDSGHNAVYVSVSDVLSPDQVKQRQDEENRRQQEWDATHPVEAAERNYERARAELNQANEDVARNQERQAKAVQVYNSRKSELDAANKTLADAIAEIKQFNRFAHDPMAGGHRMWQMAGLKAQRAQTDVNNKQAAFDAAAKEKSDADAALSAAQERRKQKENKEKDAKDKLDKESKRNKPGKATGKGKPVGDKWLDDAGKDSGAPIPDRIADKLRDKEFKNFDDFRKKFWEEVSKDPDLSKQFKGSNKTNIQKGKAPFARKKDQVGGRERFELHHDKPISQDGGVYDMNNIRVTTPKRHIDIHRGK

Key:
[1] = target: colicin E7 immunity protein ImmE7(Ct-His6) (E. coli) (UniProt Q03708); assay: co-purification by affinity chromatography; colicin co-expressed with its immunity protein carrying a C-terminal His6 tag in BL21(DE3); complex purified by affinity chromatography through the tag (Ni-NTA)
[2] = target: T1, colicin E2 immunity protein (ImmE2) carrying a C-terminal His6 tag (E. coli) (UniProt P04482); assay: as above
T1 sequence: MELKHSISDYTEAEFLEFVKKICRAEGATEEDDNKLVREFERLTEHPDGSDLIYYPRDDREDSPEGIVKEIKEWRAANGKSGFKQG

[3] = target: T2, outer-membrane receptor BtuB (E. coli (endogenous in E. coli K12 strains)) (UniProt P06129); assay: association with cells (proteinase K protection, membrane fractionation, Western blot); 1 mg colicin E-ImmE complex added to 50 ml E. coli culture (OD600 0.4, 37°C, 45 min); cells washed, treated with proteinase K (100 µg/ml, 1 h, 37°C; also 0 or 5 min, or 3- and 9-fold more PK); crude extracts or membrane fractions blotted with anti-colicin antiserum; wild-type and btuB-, tolA-, tolB-, ompFC-, ftsH-, ompT-deficient strains; only the binder purified
T2 sequence: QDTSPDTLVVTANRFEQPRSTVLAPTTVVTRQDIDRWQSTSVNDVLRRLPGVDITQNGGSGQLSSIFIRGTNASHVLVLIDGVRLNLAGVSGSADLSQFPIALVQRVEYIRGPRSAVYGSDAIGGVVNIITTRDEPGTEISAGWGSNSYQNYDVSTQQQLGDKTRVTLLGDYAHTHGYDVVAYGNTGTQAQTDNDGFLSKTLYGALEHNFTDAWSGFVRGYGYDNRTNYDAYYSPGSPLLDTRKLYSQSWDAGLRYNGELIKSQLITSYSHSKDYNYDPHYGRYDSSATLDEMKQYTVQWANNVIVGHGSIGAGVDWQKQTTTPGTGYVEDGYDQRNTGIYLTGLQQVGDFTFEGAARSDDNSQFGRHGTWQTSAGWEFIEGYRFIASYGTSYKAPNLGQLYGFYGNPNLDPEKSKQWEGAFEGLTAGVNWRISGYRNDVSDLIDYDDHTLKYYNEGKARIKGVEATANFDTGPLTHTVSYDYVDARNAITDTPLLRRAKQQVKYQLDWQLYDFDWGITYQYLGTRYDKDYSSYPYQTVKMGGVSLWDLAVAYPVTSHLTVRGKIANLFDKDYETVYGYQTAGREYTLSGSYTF

Substance: colicin E7 (from UniProt Q47112 1-576)
- binding [1]: binds

Substance: hybrid colicin E3/colicin E2 (from UniProt P00646 1-454; P04419 457-581)
- binding [2]: binds

Substance: colicin E2-ImmE2 complex (from UniProt P04419 1-581; P04482 1-86)
- binding [3]: binds

Substance: colicin E2 (from UniProt P04419 1-581)
- binding [2]: binds
